For ten substances, conjugation yield and step yield results are on record in US20100056612 (published 2010).

One series can be described thus: general procedure: hybrid (solid and solution phase) peptide synthesis; DIC or TBTU or HATU and HObt, DIPEA; DCC/HOBt. The conditions noted are these: conjugation step, TFA salt, can be converted to HCl salt.
Regarding “6^A,6^D-dideoxy-6^A,6^D-di(Gly-Lys-Lys-Lys-Lys-NH2)amino-β-cyclodextrin (GKKKK; amidated, on beta-cyclodextrin; printed: Gly-Lys-Lys-Lys-Lys-)”, the conjugation yield is 43%. On the same count and under the same terms, for “6^A,6^D-dideoxy-6^A,6^D-di[Lys-(Gly-Lys-Lys-Lys-NH2)-Gly-Lys-Lys-Lys-NH2]amino-β-cyclodextrin (GKKK; Lys-branched, amidated, on beta-cyclodextrin; printed: Gly-Lys-Lys-Lys-)” the value was 71%; for “6^A,6^D-dideoxy-6^A,6^D-di[Gly-Lys(Boc)-Lys(Boc)-Lys(Boc)-Boc]amino-nonadecakis-O-benzyl-β-cyclodextrin”, 63%; for “6^A,6^D-dideoxy-6^A,6^D-di(Ala(β)-Gly-Lys-Lys-Lys-Lys-NH2)amino-β-cyclodextrin (GKKKK; beta-Ala, amidated, on beta-cyclodextrin; printed: Gly-Lys-Lys-Lys-Lys-)”, 25%. With “6^A,6^D-dideoxy-6^A,6^D-di(Gly-Gly-Lys-Lys-Lys-Lys-NH2)amino-β-cyclodextrin (GGKKKK; amidated, on beta-cyclodextrin; printed: Gly-Gly-Lys-Lys-Lys-Lys-)”, the conjugation yield amounted to 13%. In the case of “6^A,6^D-dideoxy-6^A,6^D-di(Gly-Arg-Arg-Arg-NH2)amino-β-cyclodextrin (GRRR; amidated, on beta-cyclodextrin; printed: Gly-Arg-Arg-Arg-)”, the conjugation yield was 88%. On the same count and under the same terms, then “6^A,6^D-dideoxy-6^A,6^D-di(Ala(β)-Gly-Gly-Lys-Lys-Lys-NH2)amino-β-cyclodextrin (GGKKK; beta-Ala, amidated, on beta-cyclodextrin; printed: Gly-Gly-Lys-Lys-Lys-)”, with 53%; and “6^A,6^D-dideoxy-6^A,6^D-di(Ala(β)-Gly-Lys-Lys-Lys-NH2)amino-β-cyclodextrin (GKKK; beta-Ala, amidated, on beta-cyclodextrin; printed: Gly-Lys-Lys-Lys-)”, with 81%.

The same series, now with this note: coupling step, TFA salt, can be converted to HCl salt.
Take “6^A,6^D-dideoxy-6^A,6^D-di(Gly-Arg-Arg-Arg-Gly-Lys-Lys-Lys-NH2)amino-β-cyclodextrin (GRRRGKKK; two copies conjugated to β-cyclodextrin; printed: Gly-Arg-Arg-Arg-Gly-Lys-Lys-Lys-)”: the step yield is recorded as 21%.

Still in this series, the particulars now being: late stage modification step, TFA salt, can be converted to HCl salt.
On to “6^A,6^D-dideoxy-6^A,6^D-di[Gly-Lys(Boc)-Lys(Boc)-Lys(Boc)-Boc]amino-β-cyclodextrin”, for which the step yield amounted to 66%.
